The values below come from patent US20040071768A1, “Compositions and methods for treating cancer” (Inex Pharmaceuticals Corporation, priority 1999, published 2004).

For the data set, the system named is MDA-MB-435 breast xenografts. As for the experimental part: Female NCr nude mice were injected intravenously (q7dx3, beginning day 15) via the lateral tail vein. […] Paclitaxel (⋄) was prepared in […]/12.5% ethanol/75% saline and injected iv (q1dx5) at a dose of 15 mg/kg/dose. Drug-to-lipid ratio was 0.3/1 (w/w). Data points represent median tumor volume (n=6).
The anti-tumor activity of multiple (q7d3) dose schedules of liposomal vinorelbine was evaluated in several human xenograft tumor models. The goal of this series of studies was to identify the benefits of encapsulation by evaluating a series of doses and determining the therapeutic index in several xenograft models. Models were selected based on the following criteria: (1) activity in the single dose studies, (2) a comprehensive literature review of vinca alkaloid efficacy, (3) a desire to include at least 2-3 models that represent the clinical use of vinorelbine, and (4) a desire to include models with a range of sensitivity to vinorelbine so that improvements resulting from the use of the liposome formulation might be identified. Based on these criteria, MX-1 and MDA-MB-435 breast models, the NCl-H460 NSCLC model and the HT-29 and DLD-1 colon models were chosen.
Therapeutic index (TI) is a parameter that quantifies the “safety factor” of a particular therapy. TI is a ratio of a toxicity parameter and a biological activity parameter. […]

For the compound `CCC1=C[C@@H]2CN(C1)Cc1c([nH]c3ccccc13)[C@@](C(=O)OC)(c1cc3c(cc1OC)N(C)[C@H]1[C@@](O)(C(=O)OC)[C@H](OC(C)=O)[C@]4(CC)C=CCN5CC[C@]31[C@@H]54)C2` [VRL, 5′-noranhydrovinblastine], the “TIFree (therapeutic index, TI = MTD/MED)” value (MDA-MB-435 (breast), i.v. q7d x 3, MED at % T/C = 40) was determined as 10.0. The TI (MDA-MB-435 breast model, q7dx3) is on record as approximately 10.
